# Values joined by “and” are separate entries in the source; they are usually repeats but may differ in a detail not shown here. Equal values may be shown once. Hit rate of the full screen: of about 340,000 compounds, about 4,500 (1.3%) were called active. Inconclusive results, whose numbers are uncertain, are shown with a selection of clear calls. Calls follow the shape of the dose curve; as a rule, active = well fitted inhibition curve with a large enough effect; inconclusive = small, poorly fitted or top-dose-only effect, or another doubt; inactive = no such curve, though single readings can be large or run the other way. Potencies of inconclusive entries are doubtful fits and often do not repeat. The source holds several records for some structures; these can differ, active in one and inactive in another.
# Molecular target: DNA polymerase beta (Homo sapiens) (UniProt P06746)
# Test: qHTS Assay for Inhibitors of DNA Polymerase Beta
# Conditions: Pol beta primer extension/strand displacement, fluorescence kinetic; activity change, negative = inhibition: at 114 µM (top of the series)
# Outline: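 Curves were derived by four-parameter Hill fits of normalized qHTS data. The kinetic fluorescent primer-extension read was taken at 0 and 10 min after 50 nM substrate, following a 15 min room-temperature preincubation of 10 nM enzyme with compounds.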
# % is scaled to controls: 0 for no effect and ±100 for the full control effect; potency is read from the fitted curve at half-maximal effect.
SMILES,Potency,"activity change, negative = inhibition"
CCc1cc2c(NC(Cc3ccccc3)C(=O)O)nc(C)nc2s1 (stereo not given),inactive,
O=C(O)CC/C(=C\c1cccc(NC(=O)c2ccccc2Cl)c1)c1nc2ccccc2s1,active: 17.8 µM,
Cc1cc2c(Nc3cccc(O)c3)ncnc2s1,"inconclusive: 39.8 µM [inhibitor, single point]",
Cc1ccc(C)c(NC(=O)CSc2sc3c(O)cc(=O)[nH]c3c2C#N)c1,"inconclusive: 0.398 µM [inhibitor, full curve, poor fit]",
Cc1ccc(C(=O)N/C(=C\c2ccc(-c3ccccc3[N+](=O)[O-])o2)C(=O)NCCN(C)C)cc1,"inconclusive: 25.1 µM [inhibitor, single point]",
C/C(CC(=O)Nc1cc(C)ccn1)=N\NC(=O)c1cccc(C)c1O,"inconclusive: 3.55 µM [inhibitor, partial curve, poor fit]",
O=C1CN2CCC1C/C2=C\c1ccnc2c(Cl)cccc12 (stereo not given),"inconclusive: 63.1 µM [inhibitor, single point]",
COC(=O)c1ccccc1NC(=O)c1ccc2c(c1)OCCO2,"inconclusive: 1.41 µM [inhibitor, full curve]",
CCN(Cc1ccccc1)S(=O)(=O)c1cc(C(=O)OC)n(C)c1,"inconclusive: 1.41 µM [inhibitor, full curve, poor fit]",
Cc1ccc(C2C(C#N)=C(N)Oc3cc(C)oc(=O)c32)o1 (stereo not given),inactive,
CCOC(=O)C1=C(C)NC(=O)NC1c1cn(-c2ccccc2)nc1-c1ccc(OC(C)C)cc1 (stereo not given),"inconclusive: 10 µM [inhibitor, single point]",
Brc1ccc(C2=CC(c3cccs3)n3ncnc3N2)cc1 (stereo not given),active: 50.1 µM,
Cc1cc(C)c2nc(NNC(=O)c3ccc(S(=O)(=O)N4CCCCC4)cc3)sc2c1,"inconclusive: 89.1 µM [inhibitor, single point]",
COc1ccc(CCn2c(O)cc3nn(-c4nc5ccccc5s4)c(=O)c-3c2C)cc1,active: 1.78 µM,
CCn1c(SCc2nc3scc(-c4ccccc4)c3c(=O)[nH]2)nnc1-c1cccs1,"inconclusive: 25.1 µM [inhibitor, full curve]",
O=C(CSc1nc(-c2cccs2)nc2cc(=O)[nH]n12)Nc1cccc(C(F)(F)F)c1,"inconclusive: 12.6 µM [inhibitor, full curve, poor fit]",
CCCNC(=O)c1ccc(-c2nc(CS(=O)(=O)c3ccc(C)cc3)c(C)o2)cc1,"inconclusive: 79.4 µM [inhibitor, single point]",
O=C(COC(=O)/C=C/c1ccco1)NCCc1ccccc1,"inconclusive: 25.1 µM [inhibitor, full curve]",
Cc1nc2ccc(NC(=O)N3CCN(c4ccccn4)CC3)cc2s1,"inconclusive: 79.4 µM [inhibitor, partial curve]",
COc1ccc(NC(=O)c2ccc3c(SCC(=O)O)c4c(nc3c2)CCCC4)c(OC)c1,inactive and active: 39.8 µM,
O=C(CCN1C(=O)/C(=C/c2ccccc2Cl)SC1=S)NNC(=O)c1cccnc1,"inconclusive: 0.282 µM [inhibitor, full curve]",
CCOC(=O)c1ccccc1NC(=O)CSc1nc2ccccc2c(=O)[nH]1,"inconclusive: 89.1 µM [inhibitor, single point]",
CCSc1nnc(NC(=O)CSc2nnc(Cc3cccn3C)n2-c2ccc(C)cc2)s1,"inconclusive: 79.4 µM [inhibitor, single point]",
CCCCS(=O)(=O)CC(O)CSc1nc(-c2ccc(C)cc2)cc(-c2ccccc2)c1C#N (stereo not given),,inconclusive: -41.6% [inhibitor]

SMILES,Potency,"activity change, negative = inhibition"
CCOC(=O)c1ccc(NC(=O)CCn2c(=O)c3cccn3c3cccnc32)cc1,inactive,
O=C(Nc1ccc(S(=O)(=O)Nc2ncccn2)cc1)c1ccccc1,inactive,
O=C(NCCCn1ccnc1)C(=O)NCC1OCCN1S(=O)(=O)c1cc(F)ccc1F (stereo not given),,inconclusive: -68.9% [inhibitor]
Cc1cc2cc(CNC(=O)c3ccc(S(=O)(=O)N4CCOCC4)cc3)ccc2n1C,"inconclusive: 79.4 µM [inhibitor, single point]",
O=C1NCC(c2ccccc2)C1C(=O)N/N=C/c1ccc(Cl)s1 (stereo not given),"inconclusive: 89.1 µM [inhibitor, single point]",
O=C(CCN1C(=O)/C(=C/c2ccccc2F)SC1=S)Nc1cccnc1,"inconclusive: 11.2 µM [inhibitor, partial curve]",
NNC(=O)c1nc[nH]c1C(=O)Nc1ccccc1,inactive,
Cc1cccc(N/N=C/c2ccc(O)c(O)c2O)c1,active: 10 µM,
COc1ccc(-c2n[nH]c(=S)n2-c2cc(OC)ccc2OC)cc1,inactive,
CCN1c2ccccc2-c2nc(SCC(=O)NCc3ccccc3)ncc2S1(=O)=O,"inconclusive: 89.1 µM [inhibitor, single point]",
Cc1oc(-c2cccs2)nc1CN1CCC(c2ccccc2)CC1,"inconclusive: 89.1 µM [inhibitor, single point]",
CCSc1oc(-c2ccco2)nc1S(=O)(=O)c1ccc(Br)cc1,"inconclusive: 2.82 µM [inhibitor, partial curve]",
CCOc1ncccc1C(=O)OCC(=O)c1cc(C)n(Cc2ccco2)c1C,"inconclusive: 31.6 µM [inhibitor, single point]",
Cc1ccc(NC(=O)CSc2ccc(-c3ccco3)nn2)c(C)c1,inactive,
Clc1ccccc1N/N=C/c1ccc2c(c1)OCO2,inactive,
Cc1ccc(CCNC(=O)c2c[nH]c3ccc(S(=O)(=O)Nc4ccc(C)cc4C)cc3c2=O)cc1,"inconclusive: 56.2 µM [inhibitor, partial curve, poor fit]",
COc1ccc2nc(Nc3nc4cc5c(cc4s3)OCCO5)sc2c1,"inconclusive: 56.2 µM [inhibitor, partial curve]",
COc1cccc(C(=O)NCC(c2ccc(N(C)C)cc2)N2CCc3ccccc32)c1 (stereo not given),inactive,
COC(=O)c1cc2oc(C)cc2n1CC(=O)N1CCCc2ccccc21,"inconclusive: 50.1 µM [inhibitor, partial curve]",
Cc1ccnc(SCc2cc(=O)c(OC(=O)c3ccc(Br)o3)co2)n1,"inconclusive: 56.2 µM [inhibitor, single point]",
COc1ccccc1-n1c(SCC(=O)O)nc2sc3c(c2c1=O)CCC3,"inconclusive: 50.1 µM [inhibitor, single point]",
Cc1ccccc1C(=O)Nc1ccc(OCc2cc(=O)n3ccccc3n2)cc1,"inconclusive: 100 µM [inhibitor, single point]",
COc1ccccc1NC(=O)CCNS(=O)(=O)c1ccc2[nH]c(=O)oc2c1,inactive,
Cc1noc(C)c1C(=O)Nc1ccc(-n2ccc(C(F)(F)F)n2)cc1,inactive,

SMILES,Potency,"activity change, negative = inhibition"
O=c1c(Cl)c(Cl)cnn1Cc1ccccc1Cl,"inconclusive: 89.1 µM [inhibitor, single point]",
O=C(O)c1ccc(N/N=C/c2ccc(-c3ccc(Br)cc3)o2)cc1,"inconclusive: 89.1 µM [inhibitor, single point]",
O=C1/C(=C\c2ccco2)SC(=S)N1C1CCS(=O)(=O)C1 (stereo not given),active: 39.8 µM,
O=C(O)/C=C/C(=O)Nc1ccc2c(c1)C(=O)c1ccccc1C2=O,,inconclusive: -31.2% [inhibitor]
COc1ccccc1/C=C1/C(=O)N(c2ccc([N+](=O)[O-])cc2)N=C1C,"inconclusive: 2.82 µM [inhibitor, full curve, poor fit]",
Cc1ccc(C(=O)Nc2ccc(C(=O)OCc3cc(=O)n4nc(C5CC5)sc4n3)cc2)cc1,"inconclusive: 50.1 µM [inhibitor, partial curve]",
CCN1C(=O)/C(=C\c2ccc(-c3cccc(C(=O)OC)c3)o2)SC1=Nc1ccc(C(=O)O)cc1,inactive,
COc1ccc(CCN(C)C(=O)c2c(C)nn(CC(C)C)c2Cl)cc1OC,,inconclusive: -48% [inhibitor]
COc1ccc(OC)c(NC(=S)NN2CCOCC2)c1,"inconclusive: 89.1 µM [inhibitor, single point]",
CCc1ccc(-c2nc(CSCC(=O)NC3CC3)c(C)o2)cc1,,inconclusive: -32.6% [inhibitor]
Cc1c(O)nc2sc3ccccc3n2c1=O,inactive,
CCN(CC)CCOC(=O)C1(c2ccccc2)CCCC1,"inconclusive: 0.158 µM [inhibitor, full curve, poor fit]",
CC(=O)c1cccc(NC(=O)c2cccn2-c2nnc(N3CCCCC3)s2)c1,inactive,
O=Cc1s/c(=N\S(=O)(=O)c2ccccc2)n(CCCCl)c1Cl,"inconclusive: 89.1 µM [inhibitor, single point]",
O=C(CCC(=O)N1CC2CCCN2c2ccccc21)NCc1ccccc1 (stereo not given),inactive,
CCCCOc1ccc(C(=O)N2CCC(c3nc4ccccc4o3)CC2)cc1,"inconclusive: 89.1 µM [inhibitor, single point]",
COc1ccc(Br)cc1/C=N/NC(=O)c1cccnc1,inactive,
Cc1nn(C(=O)COc2ccccc2)c(C)c1Sc1ccccc1,"inconclusive: 0.316 µM [inhibitor, partial curve]",
Nc1cccc2c1C(=O)N(C(=O)c1ccc(Cl)c(S(=O)(=O)N3CCCCCC3)c1)C2=O,"inconclusive: 89.1 µM [inhibitor, single point]",
CCOC(=O)C1=C(C)N(c2ccc(OCC)cc2)C(=O)/C1=C\c1ccco1,"inconclusive: 39.8 µM [inhibitor, partial curve]",
O=C(NC1CCN(c2ncccn2)CC1)c1ccccc1F,inactive,
CCC/C=N/NC(=O)c1ccc(F)cc1,"inconclusive: 100 µM [inhibitor, single point]",

# Given tab-delimited: part of the list above.
SMILES	Potency	activity change, negative = inhibition
O=c1c(Cl)c(Cl)cnn1Cc1ccccc1Cl	inconclusive: 89.1 µM [inhibitor, single point]	
COc1ccc(CCN(C)C(=O)c2c(C)nn(CC(C)C)c2Cl)cc1OC		inconclusive: -48% [inhibitor]
COc1ccc(OC)c(NC(=S)NN2CCOCC2)c1	inconclusive: 89.1 µM [inhibitor, single point]	
CCc1ccc(-c2nc(CSCC(=O)NC3CC3)c(C)o2)cc1		inconclusive: -32.6% [inhibitor]
